Measurements reported in PubChem BioAssay AID1259308 (NCATS, 2017)
This is a random part of about 59,000 deposited reagents. About 1,510 of all reagents (2.6%) count as active. 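Calls use total luciferase alone and ignore viability, so some active siRNAs may act by altering cell number.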 Entries without a mark were called inactive. The numbers tell different reagents against one gene apart. Further read-outs or replicates are left out here.

Assay: 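Knock-downs that increase output of a recombinant reporter protein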 (primary screen)
System: human HEK293 embryonic kidney cells stably expressing firefly luciferase (HEK-CMV-Luc2-Hygro)
Reagents: single siRNA against human genes, 0.8 pmol siRNA per well
Time to read-out: 72 h
Detection: 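Reporter luminescence and viable-cell signal on separate replicate plates, given as percent of non-targeting control and median/MAD z-scores, plus per-cell luciferase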
Reading the numbers: total luciferase, z-score and total luciferase, % of control: higher = more reporter protein produced
Rule for the call: 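Active when the median/MAD z-score for overall luciferase is greater than 3; a gene was taken forward for validation with new siRNAs if at least two of its three siRNAs passed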
Calls: active = raised luciferase; inactive = no rise

After knock-down of FAM8A1 (GeneID 51439) #1, the record shows total luciferase, z-score 3.14 (active); total luciferase, % of control 144.
For FAM8A1 (GeneID 51439) #2, the values are total luciferase, z-score 0.626; total luciferase, % of control 94.3.
After knock-down of FAM8A1 (GeneID 51439) #3, the screen gave total luciferase, z-score 0.626; total luciferase, % of control 94.3.
With knock-down of TSBP1 (GeneID 10665) #1, the screen gave total luciferase, z-score 1.08; total luciferase, % of control 103.
TSBP1 (GeneID 10665) #2 gave total luciferase, z-score -0.0132; total luciferase, % of control 81.6.
TSBP1 (GeneID 10665) #3 scored total luciferase, z-score 0.381; total luciferase, % of control 89.5.
With knock-down of GSDMD (GeneID 79792) #1, the screen gave total luciferase, z-score -0.0883; total luciferase, % of control 80.1.
Depletion of GSDMD (GeneID 79792) #2 gave: total luciferase, z-score -0.323; total luciferase, % of control 75.5.
After knock-down of GSDMD (GeneID 79792) #3, the record shows total luciferase, z-score 1.05; total luciferase, % of control 103.
TARS2 (GeneID 80222) #1 showed total luciferase, z-score 0.236; total luciferase, % of control 86.6.
Silencing of TARS2 (GeneID 80222) #2 resulted in: total luciferase, z-score -0.0328; total luciferase, % of control 81.2.
TARS2 (GeneID 80222) #3 gave total luciferase, z-score -0.442; total luciferase, % of control 73.1.
After knock-down of CNTROB (GeneID 116840) #1, the screen gave total luciferase, z-score -0.962; total luciferase, % of control 62.8.
Depletion of CNTROB (GeneID 116840) #2 resulted in: total luciferase, z-score -0.237; total luciferase, % of control 77.2.
CNTROB (GeneID 116840) #3 scored total luciferase, z-score 0.321; total luciferase, % of control 88.3.
After knock-down of TPRG1L (GeneID 127262) #1, the screen gave total luciferase, z-score -1.02; total luciferase, % of control 61.6.
TPRG1L (GeneID 127262) #2 showed total luciferase, z-score 1.8; total luciferase, % of control 118.
TPRG1L (GeneID 127262) #3 gave total luciferase, z-score 0.0716; total luciferase, % of control 83.3.
PM20D1 (GeneID 148811) #1 showed total luciferase, z-score 1.11; total luciferase, % of control 104.
With knock-down of PM20D1 (GeneID 148811) #2, the record shows total luciferase, z-score -0.337; total luciferase, % of control 75.2.
Silencing of PM20D1 (GeneID 148811) #3 resulted in: total luciferase, z-score -1.26; total luciferase, % of control 56.8.
PWWP3A (GeneID 84939) #1 scored total luciferase, z-score 0.681; total luciferase, % of control 95.4.
After knock-down of PWWP3A (GeneID 84939) #2, the screen gave total luciferase, z-score 0.00759; total luciferase, % of control 82.
PWWP3A (GeneID 84939) #3 gave total luciferase, z-score -0.264; total luciferase, % of control 76.6.
Against DAP (GeneID 1611) #1, the values are total luciferase, z-score 3.15 (active); total luciferase, % of control 144.
DAP (GeneID 1611) #2 showed total luciferase, z-score 0.712; total luciferase, % of control 96.1.
After knock-down of DAP (GeneID 1611) #3, the screen gave total luciferase, z-score -0.239; total luciferase, % of control 77.1.
ANKRD60 (GeneID 140731) #1 scored total luciferase, z-score -1.72; total luciferase, % of control 47.7.
ANKRD60 (GeneID 140731) #2 showed total luciferase, z-score 0.237; total luciferase, % of control 86.6.
Against ANKRD60 (GeneID 140731) #3, the entry reads total luciferase, z-score 0.199; total luciferase, % of control 85.8.
SKOR1 (GeneID 390598) #1 gave total luciferase, z-score -0.357; total luciferase, % of control 74.8.
With knock-down of SKOR1 (GeneID 390598) #2 the results were total luciferase, z-score -0.78; total luciferase, % of control 66.4.
After knock-down of SKOR1 (GeneID 390598) #3, the record shows total luciferase, z-score -2; total luciferase, % of control 42.1.

No new results follow: 5 of the entries above.
TARS2 (GeneID 80222) #3 → total luciferase, z-score: -0.442; total luciferase, % of control: 73.1
CNTROB (GeneID 116840) #1 → total luciferase, z-score: -0.962; total luciferase, % of control: 62.8
CNTROB (GeneID 116840) #2 → total luciferase, z-score: -0.237; total luciferase, % of control: 77.2
CNTROB (GeneID 116840) #3 → total luciferase, z-score: 0.321; total luciferase, % of control: 88.3
TPRG1L (GeneID 127262) #1 → total luciferase, z-score: -1.02; total luciferase, % of control: 61.6
